Measured values taken from the supplement of paper PMC12823440, “Inhibitors supercharge kinase turnover through native proteolytic circuits” (Nature, 2025).
Structures can show the parent of a compound that is named as a salt. The list shows a part of the results. Hit calls seldom repeat between salt and free forms of one compound.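 Kinases were expressed as nanoluciferase fusions in K562 cells and luminescence was read every 4 h between 2 and 18 h as percent of control, DMSO set to 100% and a positive control to 0%. A time point counts as decreased when the signal drops significantly (2 sigma). The hit call is the authors' own, does not follow from the count of time points alone, and its rule is not shown.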

Sequences of proteins named here, by UniProt entry; tags and fusion partners are left off. A change or cut given only in a name is not applied to a line headed by its entry.
UniProt P29317, whole entry: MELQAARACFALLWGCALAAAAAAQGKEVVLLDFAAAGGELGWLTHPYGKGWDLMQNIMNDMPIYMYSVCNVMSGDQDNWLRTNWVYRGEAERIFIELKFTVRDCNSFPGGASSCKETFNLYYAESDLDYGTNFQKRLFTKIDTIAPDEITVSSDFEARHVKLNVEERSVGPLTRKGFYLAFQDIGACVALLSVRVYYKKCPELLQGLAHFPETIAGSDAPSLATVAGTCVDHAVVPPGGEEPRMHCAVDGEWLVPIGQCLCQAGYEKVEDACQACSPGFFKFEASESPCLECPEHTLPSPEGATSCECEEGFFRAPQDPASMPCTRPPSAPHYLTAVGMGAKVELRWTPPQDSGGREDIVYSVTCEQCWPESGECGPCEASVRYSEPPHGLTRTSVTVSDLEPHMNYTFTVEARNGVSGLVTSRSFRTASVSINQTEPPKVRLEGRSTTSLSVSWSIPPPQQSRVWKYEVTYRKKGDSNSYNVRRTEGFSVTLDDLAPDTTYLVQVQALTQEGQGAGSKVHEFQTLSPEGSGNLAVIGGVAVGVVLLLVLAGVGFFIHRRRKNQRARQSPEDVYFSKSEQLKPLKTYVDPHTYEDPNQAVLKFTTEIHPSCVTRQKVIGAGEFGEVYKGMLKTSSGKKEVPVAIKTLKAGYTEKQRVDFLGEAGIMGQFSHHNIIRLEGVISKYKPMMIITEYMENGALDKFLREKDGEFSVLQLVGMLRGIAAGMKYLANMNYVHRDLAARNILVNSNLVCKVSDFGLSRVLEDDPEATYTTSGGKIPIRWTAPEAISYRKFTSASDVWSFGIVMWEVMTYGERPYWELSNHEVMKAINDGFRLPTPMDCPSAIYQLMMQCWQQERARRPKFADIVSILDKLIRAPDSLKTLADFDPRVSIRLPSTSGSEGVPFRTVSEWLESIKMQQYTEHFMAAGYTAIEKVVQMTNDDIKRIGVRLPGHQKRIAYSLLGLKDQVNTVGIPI
UniProt P21860, whole entry: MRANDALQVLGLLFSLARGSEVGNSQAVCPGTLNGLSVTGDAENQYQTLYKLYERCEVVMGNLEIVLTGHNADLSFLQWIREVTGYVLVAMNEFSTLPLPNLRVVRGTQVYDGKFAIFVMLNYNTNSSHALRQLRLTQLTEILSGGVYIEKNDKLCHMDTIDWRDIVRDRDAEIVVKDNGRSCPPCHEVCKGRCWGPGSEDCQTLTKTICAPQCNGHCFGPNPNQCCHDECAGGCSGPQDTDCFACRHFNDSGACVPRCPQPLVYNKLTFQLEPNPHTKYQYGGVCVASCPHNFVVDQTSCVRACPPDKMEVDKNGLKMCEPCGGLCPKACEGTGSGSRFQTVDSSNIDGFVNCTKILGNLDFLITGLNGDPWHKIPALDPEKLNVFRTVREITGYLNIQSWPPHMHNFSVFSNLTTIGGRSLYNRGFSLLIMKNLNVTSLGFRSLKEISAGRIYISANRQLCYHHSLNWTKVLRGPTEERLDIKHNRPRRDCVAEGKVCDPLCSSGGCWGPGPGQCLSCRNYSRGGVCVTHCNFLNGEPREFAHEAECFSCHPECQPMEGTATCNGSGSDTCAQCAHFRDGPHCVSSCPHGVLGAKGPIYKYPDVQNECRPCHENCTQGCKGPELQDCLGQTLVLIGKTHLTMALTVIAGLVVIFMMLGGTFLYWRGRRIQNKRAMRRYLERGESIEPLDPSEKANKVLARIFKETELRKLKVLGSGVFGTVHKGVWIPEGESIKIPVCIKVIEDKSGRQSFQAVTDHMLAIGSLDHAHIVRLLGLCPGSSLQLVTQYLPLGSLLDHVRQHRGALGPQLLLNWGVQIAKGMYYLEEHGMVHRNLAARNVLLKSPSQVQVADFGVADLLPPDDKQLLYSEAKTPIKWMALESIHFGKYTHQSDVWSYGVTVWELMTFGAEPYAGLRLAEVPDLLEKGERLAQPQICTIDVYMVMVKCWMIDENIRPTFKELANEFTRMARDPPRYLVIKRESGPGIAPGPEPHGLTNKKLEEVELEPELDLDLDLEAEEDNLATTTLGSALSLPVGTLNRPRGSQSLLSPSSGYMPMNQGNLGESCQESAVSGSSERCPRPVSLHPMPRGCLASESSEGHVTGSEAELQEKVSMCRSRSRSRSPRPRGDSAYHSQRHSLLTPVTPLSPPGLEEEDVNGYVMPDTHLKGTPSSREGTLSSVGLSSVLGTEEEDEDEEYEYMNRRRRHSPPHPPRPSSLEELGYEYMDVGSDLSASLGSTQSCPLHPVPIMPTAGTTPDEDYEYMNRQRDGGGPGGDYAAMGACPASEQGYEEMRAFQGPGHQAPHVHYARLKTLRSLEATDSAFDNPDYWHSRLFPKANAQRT
UniProt Q15303, whole entry R711C: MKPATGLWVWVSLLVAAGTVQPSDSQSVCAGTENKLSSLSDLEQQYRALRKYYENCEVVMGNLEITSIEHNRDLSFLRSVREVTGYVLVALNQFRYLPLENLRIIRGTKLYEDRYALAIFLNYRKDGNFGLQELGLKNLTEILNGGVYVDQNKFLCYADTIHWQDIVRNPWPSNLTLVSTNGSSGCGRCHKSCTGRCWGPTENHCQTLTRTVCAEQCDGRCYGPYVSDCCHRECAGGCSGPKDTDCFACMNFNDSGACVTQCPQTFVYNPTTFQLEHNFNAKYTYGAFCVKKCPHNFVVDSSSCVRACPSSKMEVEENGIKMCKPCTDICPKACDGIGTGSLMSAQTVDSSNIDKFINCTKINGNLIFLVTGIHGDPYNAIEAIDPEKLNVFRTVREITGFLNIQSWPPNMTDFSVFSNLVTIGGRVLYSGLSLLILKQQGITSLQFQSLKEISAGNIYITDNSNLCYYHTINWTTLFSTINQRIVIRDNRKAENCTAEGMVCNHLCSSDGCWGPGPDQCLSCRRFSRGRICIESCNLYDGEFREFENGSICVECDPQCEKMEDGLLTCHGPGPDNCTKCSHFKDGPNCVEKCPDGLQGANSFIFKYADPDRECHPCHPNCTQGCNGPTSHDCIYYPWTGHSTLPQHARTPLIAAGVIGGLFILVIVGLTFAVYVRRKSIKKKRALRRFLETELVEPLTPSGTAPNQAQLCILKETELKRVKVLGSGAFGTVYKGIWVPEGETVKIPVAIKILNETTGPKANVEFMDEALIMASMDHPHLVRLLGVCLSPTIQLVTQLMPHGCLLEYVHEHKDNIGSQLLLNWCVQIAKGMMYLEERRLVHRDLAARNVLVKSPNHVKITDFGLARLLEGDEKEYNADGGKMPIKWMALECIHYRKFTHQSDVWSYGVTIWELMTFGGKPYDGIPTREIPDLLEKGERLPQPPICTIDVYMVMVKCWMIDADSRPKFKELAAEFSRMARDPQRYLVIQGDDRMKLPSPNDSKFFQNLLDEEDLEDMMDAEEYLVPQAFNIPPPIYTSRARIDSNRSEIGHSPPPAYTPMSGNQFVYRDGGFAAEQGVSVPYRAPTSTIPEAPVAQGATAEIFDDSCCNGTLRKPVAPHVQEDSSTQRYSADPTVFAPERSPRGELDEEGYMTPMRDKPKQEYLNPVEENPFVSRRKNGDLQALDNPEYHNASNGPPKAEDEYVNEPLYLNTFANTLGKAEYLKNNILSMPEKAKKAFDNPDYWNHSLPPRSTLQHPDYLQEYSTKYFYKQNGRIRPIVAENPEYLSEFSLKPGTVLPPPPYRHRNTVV
UniProt P11362, whole entry, looked up: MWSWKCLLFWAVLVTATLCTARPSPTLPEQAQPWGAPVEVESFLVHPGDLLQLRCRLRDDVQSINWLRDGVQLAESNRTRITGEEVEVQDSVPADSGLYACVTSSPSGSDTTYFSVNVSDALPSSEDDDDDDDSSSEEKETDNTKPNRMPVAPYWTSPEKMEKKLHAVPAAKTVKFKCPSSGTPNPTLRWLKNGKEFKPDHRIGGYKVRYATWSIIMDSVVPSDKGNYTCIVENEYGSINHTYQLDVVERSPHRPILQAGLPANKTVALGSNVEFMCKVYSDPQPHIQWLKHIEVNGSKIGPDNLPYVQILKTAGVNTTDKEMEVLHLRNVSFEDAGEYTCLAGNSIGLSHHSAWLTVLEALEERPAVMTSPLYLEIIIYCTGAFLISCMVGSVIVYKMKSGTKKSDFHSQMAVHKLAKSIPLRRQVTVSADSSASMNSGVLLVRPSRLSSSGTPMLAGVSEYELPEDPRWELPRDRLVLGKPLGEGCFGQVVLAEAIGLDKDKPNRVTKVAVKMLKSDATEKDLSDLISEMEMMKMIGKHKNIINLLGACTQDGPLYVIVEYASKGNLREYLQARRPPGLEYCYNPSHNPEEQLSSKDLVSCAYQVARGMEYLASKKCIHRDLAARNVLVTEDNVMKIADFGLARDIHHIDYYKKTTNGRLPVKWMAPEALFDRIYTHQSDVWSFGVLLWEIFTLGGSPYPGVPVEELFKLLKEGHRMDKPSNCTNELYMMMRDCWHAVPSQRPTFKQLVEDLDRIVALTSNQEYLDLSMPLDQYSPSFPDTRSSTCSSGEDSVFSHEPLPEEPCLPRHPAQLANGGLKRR
UniProt P49840: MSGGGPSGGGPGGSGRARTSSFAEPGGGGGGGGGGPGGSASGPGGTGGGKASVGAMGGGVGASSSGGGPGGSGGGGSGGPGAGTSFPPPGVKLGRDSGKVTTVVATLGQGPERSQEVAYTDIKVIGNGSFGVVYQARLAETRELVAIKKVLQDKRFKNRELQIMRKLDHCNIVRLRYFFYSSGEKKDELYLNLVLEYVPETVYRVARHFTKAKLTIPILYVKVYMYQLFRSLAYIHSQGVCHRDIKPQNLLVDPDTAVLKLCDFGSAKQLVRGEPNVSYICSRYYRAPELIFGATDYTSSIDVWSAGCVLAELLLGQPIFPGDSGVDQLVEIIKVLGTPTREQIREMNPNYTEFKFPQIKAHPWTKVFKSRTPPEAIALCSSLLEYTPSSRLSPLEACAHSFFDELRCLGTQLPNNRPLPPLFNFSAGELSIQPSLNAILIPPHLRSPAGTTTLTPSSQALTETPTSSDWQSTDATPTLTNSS
UniProt P14616: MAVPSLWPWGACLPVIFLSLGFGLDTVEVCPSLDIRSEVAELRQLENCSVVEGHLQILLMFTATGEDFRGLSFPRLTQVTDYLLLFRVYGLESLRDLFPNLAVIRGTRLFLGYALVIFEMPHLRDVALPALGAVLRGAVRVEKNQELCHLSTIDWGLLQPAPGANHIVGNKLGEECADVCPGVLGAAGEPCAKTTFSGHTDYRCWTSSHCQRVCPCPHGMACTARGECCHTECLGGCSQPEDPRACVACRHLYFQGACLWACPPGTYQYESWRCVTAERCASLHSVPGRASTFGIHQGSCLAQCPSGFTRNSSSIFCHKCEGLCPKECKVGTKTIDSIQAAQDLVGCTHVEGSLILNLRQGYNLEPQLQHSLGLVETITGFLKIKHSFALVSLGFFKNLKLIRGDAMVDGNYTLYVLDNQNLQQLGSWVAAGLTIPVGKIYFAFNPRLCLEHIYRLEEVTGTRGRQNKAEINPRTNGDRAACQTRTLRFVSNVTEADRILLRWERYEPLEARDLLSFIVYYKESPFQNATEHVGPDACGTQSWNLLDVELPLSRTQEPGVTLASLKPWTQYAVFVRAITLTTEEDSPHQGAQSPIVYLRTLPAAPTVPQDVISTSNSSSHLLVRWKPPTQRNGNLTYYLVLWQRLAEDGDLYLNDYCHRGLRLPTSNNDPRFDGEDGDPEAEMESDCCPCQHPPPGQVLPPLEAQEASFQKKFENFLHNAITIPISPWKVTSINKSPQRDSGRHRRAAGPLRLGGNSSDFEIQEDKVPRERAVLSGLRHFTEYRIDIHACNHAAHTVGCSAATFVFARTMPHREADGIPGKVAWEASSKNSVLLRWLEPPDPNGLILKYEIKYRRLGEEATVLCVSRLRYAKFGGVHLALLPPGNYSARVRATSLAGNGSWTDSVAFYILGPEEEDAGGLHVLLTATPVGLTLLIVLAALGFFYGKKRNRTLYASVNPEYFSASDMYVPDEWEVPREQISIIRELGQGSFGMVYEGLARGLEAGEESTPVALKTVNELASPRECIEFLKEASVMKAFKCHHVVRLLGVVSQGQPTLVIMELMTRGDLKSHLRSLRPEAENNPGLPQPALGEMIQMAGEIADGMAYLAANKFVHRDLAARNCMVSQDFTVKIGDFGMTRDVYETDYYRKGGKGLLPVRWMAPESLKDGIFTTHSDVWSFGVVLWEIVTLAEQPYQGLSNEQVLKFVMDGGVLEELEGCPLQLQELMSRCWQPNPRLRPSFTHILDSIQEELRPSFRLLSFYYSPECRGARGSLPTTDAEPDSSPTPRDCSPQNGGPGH

Columns and labels:
Assay in all cases: kinase-Nluc reporter destabilization hit call (1 = scored as downregulated) (binary); higher = compound decreases kinase abundance
Settings in all cases: K562, 2-18 h
[1] = target: EGFR (UniProt P00533)
[2] = target: EGFR_G719S (UniProt P00533)
[3] = target: EGFR_G719S_T790M (UniProt P00533)
[4] = target: EGFR_L718V (UniProt P00533)
[5] = target: EGFR_L858R (UniProt P00533)
[6] = target: EGFR_L861Q (UniProt P00533)
[7] = target: EGFR_T790M (UniProt P00533)
[8] = target: EPHA2 (UniProt P29317)
[9] = target: ERBB3 (UniProt P21860)
[10] = target: ERBB4_R711C (clone: ERBB4_mut) (UniProt Q15303)
[11] = target: ERN1 (UniProt O75460)
[12] = target: FGFR1 (UniProt P11362)
[13] = target: FGFR2 (UniProt P21802)
[14] = target: FGFR3 (UniProt P22607)
[15] = target: FGR (UniProt P09769)
[16] = target: FLT3 (UniProt P36888)
[17] = target: FYN (UniProt P06241)
[18] = target: GSK3A (UniProt P49840)
[19] = target: HER2 (UniProt P04626)
[20] = target: INSRR (UniProt P14616)

Measured: kinase-Nluc reporter destabilization hit call

C#Cc1cccc(Nc2ncnc3cc(OCCOC)c(OCCO)cc23)c1 [Desmethyl Erlotinib]
inactive: [1]; 10 µM 0 | [2]; 10 µM 0 | [3]; 10 µM 0 | [4]; 10 µM 0 | [5]; 10 µM 0 | [6]; 10 µM 0 | [7]; 10 µM 0 | [8]; 10 µM 0 | [9]; 10 µM 0 | [10]; 10 µM 0 | [11]; 10 µM 0 | [12]; 10 µM 0 | [13]; 10 µM 0 | [14]; 10 µM 0 | [15]; 10 µM 0 | [16]; 10 µM 0 | [17]; 10 µM 0 | [18]; 10 µM 0 | [19]; 10 µM 0 | [20]; 10 µM 0

Clc1ccc(C2(c3ccc(-c4cn[nH]c4)cc3)CCNCC2)cc1 [AT7867 (dihydrochloride)]
inactive: [1]; 2.5 µM 0 | [2]; 2.5 µM 0 | [3]; 2.5 µM 0 | [4]; 2.5 µM 0 | [5]; 2.5 µM 0 | [6]; 2.5 µM 0 | [7]; 2.5 µM 0 | [8]; 2.5 µM 0 | [9]; 2.5 µM 0 | [10]; 2.5 µM 0 | [11]; 2.5 µM 0 | [12]; 2.5 µM 0 | [13]; 2.5 µM 0 | [14]; 2.5 µM 0 | [15]; 2.5 µM 0 | [16]; 2.5 µM 0 | [17]; 2.5 µM 0 | [18]; 2.5 µM 0 | [19]; 2.5 µM 0 | [20]; 2.5 µM 0

Cc1cc(Nc2ncc(Cl)c(Nc3ccccc3S(=O)(=O)C(C)C)n2)c(OC(C)C)cc1C1CCNCC1 [Ceritinib]
inactive: [1]; 2.5 µM 0 | [2]; 2.5 µM 0 | [3]; 2.5 µM 0 | [4]; 2.5 µM 0 | [5]; 2.5 µM 0 | [6]; 2.5 µM 0 | [7]; 2.5 µM 0 | [8]; 2.5 µM 0 | [9]; 2.5 µM 0 | [10]; 2.5 µM 0 | [11]; 2.5 µM 0 | [12]; 2.5 µM 0 | [13]; 2.5 µM 0 | [14]; 2.5 µM 0 | [15]; 2.5 µM 0 | [16]; 2.5 µM 0 | [17]; 2.5 µM 0 | [18]; 2.5 µM 0 | [19]; 2.5 µM 0 | [20]; 2.5 µM 0

Clc1ccc(C2(c3ccc(-c4cn[nH]c4)cc3)CCNCC2)cc1
inactive: [1]; 10 µM 0 | [2]; 10 µM 0 | [3]; 10 µM 0 | [4]; 10 µM 0 | [5]; 10 µM 0 | [6]; 10 µM 0 | [7]; 10 µM 0 | [8]; 10 µM 0 | [9]; 10 µM 0 | [10]; 10 µM 0 | [11]; 10 µM 0 | [12]; 10 µM 0 | [13]; 10 µM 0 | [14]; 10 µM 0 | [15]; 10 µM 0 | [16]; 10 µM 0 | [17]; 10 µM 0 | [18]; 10 µM 0 | [19]; 10 µM 0 | [20]; 10 µM 0
